The subject of the assay is Salmonella enterica serovar Typhimurium SL1344. Nature of the assay: bacterial growth OD600 after 18 h with compound and polymyxin B; higher = more bacterial growth (less inhibition). Conditions: 50 µM, Mueller-Hinton broth.

The other results are listed elsewhere or left out. Values are raw readings; no control value is given beside them.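 Primary screen: polymyxin B was added at a level permeabilizing Salmonella outer membranes while sparing inner membranes. DMSO wells, both with and without polymyxin B, established maximum growth. Plate-to-plate variation meant each plate was ranked on its own, and the lowest-OD600 compounds were selected as hits.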

Regarding `O=C(NC1(c2ccccc2)CC1)C1CCC(=O)N(CCCN2CCCC2=O)C1` (stereo not given), the “bacterial growth OD600” value (polymyxin B 1 µg/mL) was 0.957.
As to `COCc1ccc(C(=O)N2CCCC(CCc3ccccc3C)C2)o1` (stereo not given), the “bacterial growth OD600” value (polymyxin B 0.75 µg/mL) came to 0.
As to `COCCC(=O)N1CCC(C(=O)Nc2ccc(-n3nc(C)cc3C)cc2)CC1`, the “bacterial growth OD600” value (polymyxin B 1 µg/mL) turned out to be 0.943.
Regarding `COc1cccc(CC(C2CCN(C(=O)c3cccnc3OC)CC2)N(C)C(=O)c2ccn(C)n2)c1` (stereo not given), the “bacterial growth OD600” value (polymyxin B 0.75 µg/mL) was determined as 0.865.
On the same count and under the same terms, the figure for `CC1(C(=O)N2CCC(C3CCN(c4ncccn4)CC3)C2)CCCCC1` (stereo not given) is 0.015.
As for `Cc1csc(S(=O)(=O)N2CCC(CO)(Cc3ccccc3Cl)CC2)c1`, for the setting “polymyxin B 1 µg/mL”, the “bacterial growth OD600” value was 0.852.
On the same count and under the same terms, the figure for `COCCC(=O)N1CCC(Oc2ccc(C(=O)N[C@H]3CCCCNC3=O)cc2)CC1` is 0.839; for `COc1ccc(CN2CCN(Cc3ccccc3F)CC2CCO)c(C)c1C` (stereo not given) it is 0.855.
For `C=CCC(=O)N1CCC(C2CCN(Cc3cccnc3)CC2)C1` (stereo not given), where the note is “polymyxin B 0.75 µg/mL”, the “bacterial growth OD600” value was found to be 0.79.
Consider `CCN(CC)C1CCN(C(=O)C2(N(C)C)Cc3ccccc3C2)C1` (stereo not given), for which the “bacterial growth OD600” value (polymyxin B 0.75 µg/mL) came to 0.814.
`COc1ccccc1CN1C(=O)O[C@@H]2CN(CCCn3cccn3)C[C@@H]21`: the “bacterial growth OD600” value (polymyxin B 0.75 µg/mL) is 0.816.
For the compound `O=C(CC1CC1)NC1CC(=O)N(CCCc2ccccc2)C1` (stereo not given), the “bacterial growth OD600” value (polymyxin B 1 µg/mL) worked out at 0.885.
With `CCOC(=O)N1CCN(C(=O)c2ccc(N3CCC(NC4CCOC(C)(C)C4)CC3)cc2)CC1` (stereo not given), the “bacterial growth OD600” value (polymyxin B 0.75 µg/mL) is 0.841.
Turning to `Clc1ccc(N2CCC(C3CCN(Cc4cccnc4)CC3)C2)nc1` (stereo not given), under “polymyxin B 0.75 µg/mL”, the “bacterial growth OD600” value was found to be 0.733.
In the case of `Cc1cccc(C(=O)N2CCC(N3CCC(C(=O)NCc4cccnc4)CC3)CC2)c1`, where the note is “polymyxin B 0.75 µg/mL”, the “bacterial growth OD600” value came out at 0.763.
Regarding `CCN(CC)c1ncccc1CNC(=O)Cn1cccn1`, the “bacterial growth OD600” value (polymyxin B 1 µg/mL) worked out at 0.871.
In the case of `COc1cccc(OCc2nc(C(=O)N3CCCCO3)co2)c1`, where the note is “polymyxin B 1 µg/mL”, the “bacterial growth OD600” value was 0.909.
On the same count and under the same terms, the same measure for `CCN1CCCC1CN(CC1CCN(CCOC)CC1)C(=O)CCOC` (stereo not given): 0.938.
In the case of `CC(Oc1ccccc1)C(=O)N1CCC(CCC(=O)NC2CC2)CC1` (stereo not given), the “bacterial growth OD600” value (polymyxin B 1 µg/mL) is 0.848.
For `COc1cccc(CN2C(=O)NC(C)(C3CCN(C(=O)c4sccc4Cl)CC3)C2=O)c1OC` (stereo not given), the “bacterial growth OD600” value (polymyxin B 0.75 µg/mL) was found to be 0.886.
Still for that read-out and setting: the figure for `CC(C)(C)CC(=O)N1CCC(C2(c3ccccn3)NC(=O)N(CCc3cccs3)C2=O)CC1` (stereo not given) is 1; for `CC1CCN(C(=O)C2CCCN(C3CCN(Cc4ccccc4)CC3)C2)CC1` (stereo not given) it is 0.904; for `O=C1N(Cc2cccc(Cl)c2)C[C@@H]2C[C@@H](c3ccc(F)c(F)c3)N3CCC[C@@]123` it is 0.553.
`COc1ccc(-c2noc(CN(C)CCOc3ccc(C)cc3)n2)c(OC)c1OC`: the “bacterial growth OD600” value (polymyxin B 1 µg/mL) came to 1.2.
Regarding `O=C(NC1CCCc2nc(N3CCC(CO)CC3)ncc21)C1CCCCC1` (stereo not given), the “bacterial growth OD600” value (polymyxin B 0.75 µg/mL) was determined as 0.829.
Consider `CSCCC(C)N1CCC(N2CCC(C(=O)NCc3cccnc3)CC2)CC1` (stereo not given), for which the “bacterial growth OD600” value (polymyxin B 1 µg/mL) turned out to be 1.02.
With `O=C(c1csnn1)N1CCc2[nH]nc(-c3ccccc3)c2C1`, the “bacterial growth OD600” value (polymyxin B 0.75 µg/mL) was 0.874.
Consider `CCC(C)CC(=O)N1CCC(C2(c3ccccn3)NC(=O)N(CCc3cccs3)C2=O)CC1` (stereo not given), for which, under “polymyxin B 0.75 µg/mL”, the “bacterial growth OD600” value worked out at 0.899.
As to `COCC(=O)N1CCOC(CC(c2ccccc2)c2ccccc2)C1` (stereo not given), the “bacterial growth OD600” value (polymyxin B 1 µg/mL) stood at 0.804.
The same measure, in the same setting: the figure for `CC(NC(=O)c1coc(Cn2cnc3ccccc32)n1)c1ccc2[nH]ccc2c1` (stereo not given) is 0.972.

(Values after the supplement of paper PMC12889115.)
